Measured values as given in PubChem BioAssay AID1347076 (National Center for Advancing Translational Sciences (NCATS), 2019).
Screen size: about 400,000 compounds; about 13,000 (3.2%) were called active. Inconclusive means that the source gave no clear call. Such entries were picked first, then a sample of the others. Calls come from the whole dose curve; as a rule, active = well fitted cell-killing curve with a large enough effect; inconclusive = small, poorly fitted or top-dose-only effect, or effect the other way; inactive = flat fitted curve, though single readings scatter. Potencies of inconclusive entries are doubtful fits and often do not repeat.
% is set by controls: 0 for no effect and ±100 for the full control effect; potency is the fitted concentration of half-maximal effect.

Experiment: qHTS assay for MDR1-selective chemotherapeutics: Primary screen using the drug-selected MDR subline cells KB-V1; note: nearly all actives have a fitted effect of over 60% in size
Settings: KB-V1 MDR cells viability, CellTiter-Glo, 72 h; activity change, negative = cytotoxicity: at 46.1 µM (top of the series)
Procedure, shortened: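 Drug-selected KB-V1 cells, grown in DMEM lacking phenol red with 10% FBS, receive compound titrations; after three days at 37 degrees C, surviving cell ATP is quantified by CellTiter-Glo luminescence and responses normalized and curve-fitted.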
In the case of C=C(C)C(=O)OC1(C(F)(F)F)Oc2cc(C)ccc2NC1=O (centres undefined), the Potency is reported as “inactive”. In the case of COC(=O)[C@]12CCCCC=C1N(Cc1ccc3c(c1)OCO3)C(=O)[C@H](CC(=O)NCc1cccc(C(F)(F)F)c1)C2, the Potency is reported as inconclusive: 14.6 µM [cytotoxic, partial curve, poor fit]. In the case of CCOCCOC(=O)c1[nH]c2c(c1C)C(=O)CC(c1ccc(OC)c(OC)c1)C2 (centres undefined), the Potency is reported as inconclusive: 20.6 µM [cytotoxic, single point]. For O=S(=O)(c1ccccc1)c1cnc(-c2cccnc2)nc1-c1ccc(Cl)c(Cl)c1, the Potency was active: 6.51 µM. For Cc1ccccc1NS(=O)(=O)c1cc(C(=O)NCCC2=CCCCC2)ccc1C, the Potency was inconclusive: 18.4 µM [cytotoxic, single point]. For Cn1c(=O)n(C)c2cc(/C=N/NC(=S)NCc3ccccc3)ccc21, the Potency was inconclusive: 16.4 µM [cytotoxic, partial curve]. For CCCCN(C)S(=O)(=O)c1ccc(C(=O)Nc2nnc(CSC)o2)cc1, the Potency was inconclusive: 10 µM [cytotoxic, partial curve, poor fit]. In the case of O=S(=O)(Nc1cccc(C(F)(F)F)c1)c1cnc[nH]1, the Potency is reported as “inactive”. With COc1ccccc1NC(=O)C(=O)/C=C(\O)c1ccccc1 the Potency was active: 18.4 µM. For COc1cccc(-c2nc(-c3ccc(NC(=O)c4cccs4)cc3)no2)c1, the Potency was “inactive”. In the case of COC1CCN(C(=O)c2cc(COc3cc(C)ccc3C)on2)CC1, the Potency is reported as inconclusive: 13 µM [cytotoxic, single point]. In the case of C=CCN(CC=C)C(=O)COn1nnc2ccc(S(=O)(=O)N3CCOCC3)cc21, the Potency is reported as inconclusive: 29.1 µM [cytotoxic, single point]. For S=C(Nc1ccc(Oc2ccccc2)cc1)NC1CCCCC1, the Potency was inconclusive: 25.9 µM [cytotoxic, single point]. In the case of CCOC(=O)c1nnn(-c2nonc2N)c1-c1cccc2ccccc12, the Potency is reported as inconclusive: 20.6 µM [cytotoxic, single point]. In the case of Cc1ccc(OCCn2cc(C(=O)O)c3ccccc32)cc1, the Potency is reported as “inactive”. For N#Cc1ccccc1NC(=O)COC(=O)CN1C(=O)C2CCCCC2C1=O (centres undefined), the Potency was inconclusive: 0.58 µM [rising, full curve, poor fit]. For Cc1ccc(C)c(N2CCN(C(=O)CN3C(=S)NC(C)(C)CC3C)CC2)c1 (centres undefined), the Potency was inconclusive: 10.3 µM [cytotoxic, partial curve, poor fit]. For Cn1c(=O)c2c(nc(N3CCCC3)n2C)n(C)c1=O, the activity change, negative = cytotoxicity was inconclusive: 0%. In the case of O=C(NC(Cc1ccccc1)C(=O)O)/C(=C/c1cccc([N+](=O)[O-])c1)NC(=O)c1ccco1 (centres undefined), the Potency is reported as inconclusive: 3.26 µM [rising, partial curve, poor fit]. In the case of O=C(c1ccco1)N(Cc1cccs1)c1ccc(O)cc1, the Potency is reported as “inactive”. In the case of CCN(CC(=O)NCc1cccs1)C(=O)C(c1ccccc1)c1ccccc1, the Potency is reported as inconclusive: 5.8 µM [cytotoxic, full curve]. For O=c1c2ccccc2nc(CSc2ncnc3nc[nH]c23)n1-c1cccc(C(F)(F)F)c1, the Potency was “inactive”. For COc1ccc(N(CC(=O)Nc2ccc3c(c2)OCCO3)S(=O)(=O)c2c(C)noc2C)cc1, the Potency was active: 2.91 µM. In the case of CCN(CC)S(=O)(=O)c1cc(C(=O)OCC(=O)Nc2ccc(-c3nc4ccc(C)cc4s3)cc2)ccc1F, the Potency is reported as inconclusive: 29.1 µM [cytotoxic, single point]. For COCCCNC(=O)c1c(C)nn(-c2ccc(F)cc2)c1-n1cccc1, the Potency was inconclusive: 18.4 µM [cytotoxic, partial curve, poor fit]. With CC1=C(C(=O)Nc2ccccc2)C(c2ccncc2)n2nc(SCc3ccccc3)nc2N1 (centres undefined) the Potency was inconclusive: 29.1 µM [rising, single point]. In the case of COc1ccc(O)c(C(=O)CC(=O)c2ccc(F)cc2)c1, the Potency is reported as active: 2.91 µM. With Cc1cc(=O)[nH]c(NN=C(CC(C)C)CC(C)C)n1 the Potency was inconclusive: 23.1 µM [cytotoxic, partial curve]. With O=S(=O)(NCc1ccncc1)c1ccc(S(=O)(=O)NCC2CCCO2)cc1 (centres undefined) the Potency was “inactive”. With Cc1cccc2cc(C#N)c(SCC#N)nc12 the Potency was inconclusive: 29.1 µM [cytotoxic, single point]. For CCOC(=O)c1c(C)n(C)c2cc(Br)c(OC)cc12, the Potency was inconclusive: 20.6 µM [cytotoxic, single point]. In the case of O=C(NNC1=NC2(CCCC2)Cc2ccccc21)c1ccncc1, the Potency is reported as “inactive”. With CC(C)c1ccc(NC(=O)CCS(=O)(=O)c2ccc(Br)s2)cc1 the Potency was “inactive”. In the case of CCOC(=O)N1CCN(C(=O)c2cc(-c3ccncc3)nc3ccccc23)CC1, the Potency is reported as inconclusive: 29.1 µM [cytotoxic, single point]. With CN(C)c1ccc(C(=S)N2CCCCCC2)cc1 the Potency was “inactive”. With CC1(C)C2CC=C(/C=N/NC(=O)c3ccccc3Br)C1C2 (centres undefined) the Potency was inconclusive: 2.91 µM [rising, partial curve, poor fit]. In the case of O=C(Nc1nc2c(s1)CCc1ccccc1-2)c1cccs1, the Potency is reported as inconclusive: 18.4 µM [cytotoxic, single point]. With O=C(NCCSCc1ccco1)Nc1cc(Cl)cc(Cl)c1 the Potency was inconclusive: 29.1 µM [cytotoxic, single point]. For O=C(CCl)N1CCN2C(=O)c3ccccc3C12c1ccc(Cl)cc1 (centres undefined), the Potency was inconclusive: 18.4 µM [cytotoxic, single point]. With C=CCn1c(=N)n(CC(=O)c2ccc(Br)s2)c2ccccc21 the Potency was “inactive”. With Cc1ccc(C(C)C)c(OCC(=O)N/N=C/c2ccc(S(=O)(=O)O)o2)c1 the Potency was inconclusive: 32.6 µM [cytotoxic, partial curve, poor fit]. In the case of CCCCNc1c(-c2ccc(OC)c(SC(C)CC)c2)nc2ccc(Cl)cn12 (centres undefined), the Potency is reported as “inactive”. With COC(=O)c1ccc(OC(=O)CCN2C(=O)C3C4c5ccccc5C(c5ccccc54)C3C2=O)cc1 (centres undefined) the Potency was inconclusive: 20.6 µM [cytotoxic, single point]. With C=CCN1C(=O)S/C(=C/c2ccsc2)C1=O the Potency was inconclusive: 20.6 µM [cytotoxic, single point]. In the case of COc1cc2c(cc1OC)-c1nnc(-c3ccco3)n1C1(CCCC1)C2, the Potency is reported as “inactive”. For CC(C)n1cc(/C=N/Nc2ccc(C(=O)O)cc2)c2ccccc21, the Potency was “inactive”. For CC1CC2=C(NC(=S)NC2c2cccc(F)c2)/C(=C/c2cccc(F)c2)C1 (centres undefined), the Potency was inconclusive: 11.6 µM [cytotoxic, partial curve]. In the case of CC1(C)CC(NC(=O)c2cccc(S(=O)(=O)N(Cc3ccccc3)c3ccccc3)c2)CC(C)(C)N1, the Potency is reported as “inactive”. In the case of CCCCNS(=O)(=O)c1ccc2nc(SCC(=O)Nc3cc(C)cc(C)c3)[nH]c2c1, the Potency is reported as inconclusive: 18.4 µM [cytotoxic, single point]. With O=C(C1CCCCC1)N(Cc1ccccc1)c1ccccn1 the Potency was “inactive”. In the case of CN(C)c1nc2ccccc2n(C)c1=O, the Potency is reported as inconclusive: 29.1 µM [rising, partial curve, poor fit]. For FC(F)Sc1ccc(NC(=S)NCC2CCCCC2)cc1, the Potency was “inactive”. For COc1ccc(-c2nc3ccccn3c2NC2CCCCC2)cc1SC1CCCCC1, the Potency was “inactive”. For CCn1c(CNC(=O)c2cccnc2)cc2ccccc21, the Potency was inconclusive: 10.3 µM [cytotoxic, partial curve]. For CC1CCCCC1NC(=S)Nc1ccc(Cl)cc1Cl (centres undefined), the Potency was inconclusive: 16.4 µM [cytotoxic, single point]. For CCOc1ccc(C(=O)NCC(=O)NCCSc2ccc(Br)cc2)cc1OCC, the Potency was active: 3.66 µM. For CCOC(=O)c1c(C=O)c(C)n(Cc2ccc(C)cc2)c1C, the Potency was inconclusive: 20.6 µM [cytotoxic, partial curve, poor fit]. For COc1cccc(CNC(=O)C2CCN(S(=O)(=O)N3CCC4(CC3)OCCO4)CC2)c1, the Potency was “inactive”. In the case of CC(C)c1ccc(S(=O)(=O)N2CCC3(CC2)OCCO3)cc1, the Potency is reported as inconclusive: 20.6 µM [cytotoxic, partial curve, poor fit]. With COc1ccc(C(=O)N/C=C/n2cnc3cc(C(F)(F)F)ccc32)cc1 the Potency was “inactive”. For Cc1cccc(OCCn2nnc3sc4c(c3c2=O)CCCC4)c1, the Potency was “inactive”. In the case of C=CCOc1ccc2c(CC)cc(=O)oc2c1C, the Potency is reported as inconclusive: 20.6 µM [cytotoxic, partial curve]. For CN(Cc1ccccc1Cl)C(=O)C1CC(=O)N(c2ccc3c(c2)OCCO3)C1 (centres undefined), the Potency was inconclusive: 9.2 µM [cytotoxic, partial curve]. For CCCCCCc1c(O)nc(SCC(=O)O)[nH]c1=O, the Potency was inconclusive: 29.1 µM [rising, single point]. In the case of CCOC(=O)c1sc(NC(=O)c2nc(SC)ncc2Cl)c(C(=O)OCC)c1C, the Potency is reported as “inactive”. With CCOC(=O)c1c(C)oc2cc(Br)c(O)c(Br)c12 the Potency was inconclusive: 29.1 µM [cytotoxic, single point]. For CCN(CC)C(=S)SCC(=O)c1c(C)[nH]c2ccccc12, the Potency was inconclusive: 32.6 µM [cytotoxic, single point]. With Cn1c(=O)[nH]c(=O)c2c1nc(SCC(O)CCl)n2Cc1ccccc1 (centres undefined) the Potency was “inactive”. In the case of COc1ccc(-n2c(-c3ccc(Cl)cc3)cc3c2CC(C)(C)CC3=O)c(OC)c1, the Potency is reported as “inactive”. With Cc1ccc(NC(=O)CSc2nnc(-c3ccccc3C)o2)cc1C the Potency was “inactive”. In the case of NNC(=O)c1ccc(O)cc1O, the Potency is reported as “inactive”. With O=C(Nc1cccc(Cl)c1)Nc1sccc1-c1nc2ccccc2s1 the Potency was inconclusive: 29.1 µM [cytotoxic, single point]. For O=C(c1cc(-c2ccc(O)cc2)on1)N1CCCCCC1, the Potency was inconclusive: 16.4 µM [cytotoxic, single point]. With Cc1cc(F)ccc1S(=O)(=O)Nc1ccccc1C(=O)Nc1ccccc1-c1nc2ccccc2[nH]1 the Potency was active: 18.4 µM.
